Measurements: paper PMC8990465

Molecular target: T1, CLDN10 (Claudin-10) overexpressed with 3xflag (UniProt P78369)
T1 sequence: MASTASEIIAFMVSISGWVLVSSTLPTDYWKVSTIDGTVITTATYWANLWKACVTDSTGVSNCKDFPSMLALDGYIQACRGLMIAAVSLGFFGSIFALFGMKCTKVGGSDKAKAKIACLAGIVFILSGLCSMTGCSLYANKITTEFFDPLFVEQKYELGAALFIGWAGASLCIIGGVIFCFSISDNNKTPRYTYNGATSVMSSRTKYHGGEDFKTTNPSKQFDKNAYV
Experiment: affinity purification with mass spectrometry; anti-Flag M2 magnetic beads in cell lysate (IP lysis buffer) overnight at 4 °C; two silver-stained bands seen only in the CLDN10 overexpression group were sent to mass spectrometry

B1: ATP5O protein (ATP synthase subunit O, mitochondrial) (protein, UniProt P48047 24-213)
chain: FAKLVRPPVQVYGIEGRYATALYSAASKQNKLEQVEKELLRVAQILKEPKVAASVLNPYVKRSIKVKSLNDITAKERFSPLTTNLINLLAENGRLSNTQGVVSAFSTMMSVHRGEVPCTVTSASPLEEATLSELKTVLKSFLSQGQVLKLEAKTDPSILGGMIVRIGEKYVDMSVKTKIQKLGRAMREIV
binding: binds

Results are given in words; binding and its absence hold for the method and conditions named. Binding seen in cells or lysates may run through a third protein. These calls come from enrichment with a bait or labelling near it, and not all partners need be listed. Tags and fused reporters may be left off the sequences shown.
